This is a selection; strong and weak results do not stand in their true shares.
What follows are targets tested with COC(=O)C#Cc1ccccc1 [methyl 3-phenylpropiolate] (assay: log2 ratio of iodoacetamide-alkyne labeling of the cysteine site, DMSO over compound (competition); higher = stronger covalent engagement of the cysteine by the compound, active = 1 or more). Conditions: 500 µM; treatment time 1 h; system: HEK293T cell lysate.
Procedure, shortened: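 The log2 competition ratio per cysteine is defined as mean reporter intensity in control channels over mean reporter intensity in compound channels. Lysate from HEK293T cells (2 mg/mL) received electrophile (500 µM) or vehicle for 1 h at ambient temperature, followed by iodoacetamide alkyne for 1 h. Samples were clicked to sCIP-TMT reagents, pooled, trypsin-digested overnight at 37 °C, streptavidin-enriched, acid-eluted and run on Orbitrap Eclipse LC-MS/MS with FAIMS, with quantification in FragPipe. Three replicates with duplicate channels were used, and any cysteine quantified in only one replicate was excluded.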

Amino acid sequences for entries named in this document (tags omitted).
UniProt P49327, whole entry, looked up: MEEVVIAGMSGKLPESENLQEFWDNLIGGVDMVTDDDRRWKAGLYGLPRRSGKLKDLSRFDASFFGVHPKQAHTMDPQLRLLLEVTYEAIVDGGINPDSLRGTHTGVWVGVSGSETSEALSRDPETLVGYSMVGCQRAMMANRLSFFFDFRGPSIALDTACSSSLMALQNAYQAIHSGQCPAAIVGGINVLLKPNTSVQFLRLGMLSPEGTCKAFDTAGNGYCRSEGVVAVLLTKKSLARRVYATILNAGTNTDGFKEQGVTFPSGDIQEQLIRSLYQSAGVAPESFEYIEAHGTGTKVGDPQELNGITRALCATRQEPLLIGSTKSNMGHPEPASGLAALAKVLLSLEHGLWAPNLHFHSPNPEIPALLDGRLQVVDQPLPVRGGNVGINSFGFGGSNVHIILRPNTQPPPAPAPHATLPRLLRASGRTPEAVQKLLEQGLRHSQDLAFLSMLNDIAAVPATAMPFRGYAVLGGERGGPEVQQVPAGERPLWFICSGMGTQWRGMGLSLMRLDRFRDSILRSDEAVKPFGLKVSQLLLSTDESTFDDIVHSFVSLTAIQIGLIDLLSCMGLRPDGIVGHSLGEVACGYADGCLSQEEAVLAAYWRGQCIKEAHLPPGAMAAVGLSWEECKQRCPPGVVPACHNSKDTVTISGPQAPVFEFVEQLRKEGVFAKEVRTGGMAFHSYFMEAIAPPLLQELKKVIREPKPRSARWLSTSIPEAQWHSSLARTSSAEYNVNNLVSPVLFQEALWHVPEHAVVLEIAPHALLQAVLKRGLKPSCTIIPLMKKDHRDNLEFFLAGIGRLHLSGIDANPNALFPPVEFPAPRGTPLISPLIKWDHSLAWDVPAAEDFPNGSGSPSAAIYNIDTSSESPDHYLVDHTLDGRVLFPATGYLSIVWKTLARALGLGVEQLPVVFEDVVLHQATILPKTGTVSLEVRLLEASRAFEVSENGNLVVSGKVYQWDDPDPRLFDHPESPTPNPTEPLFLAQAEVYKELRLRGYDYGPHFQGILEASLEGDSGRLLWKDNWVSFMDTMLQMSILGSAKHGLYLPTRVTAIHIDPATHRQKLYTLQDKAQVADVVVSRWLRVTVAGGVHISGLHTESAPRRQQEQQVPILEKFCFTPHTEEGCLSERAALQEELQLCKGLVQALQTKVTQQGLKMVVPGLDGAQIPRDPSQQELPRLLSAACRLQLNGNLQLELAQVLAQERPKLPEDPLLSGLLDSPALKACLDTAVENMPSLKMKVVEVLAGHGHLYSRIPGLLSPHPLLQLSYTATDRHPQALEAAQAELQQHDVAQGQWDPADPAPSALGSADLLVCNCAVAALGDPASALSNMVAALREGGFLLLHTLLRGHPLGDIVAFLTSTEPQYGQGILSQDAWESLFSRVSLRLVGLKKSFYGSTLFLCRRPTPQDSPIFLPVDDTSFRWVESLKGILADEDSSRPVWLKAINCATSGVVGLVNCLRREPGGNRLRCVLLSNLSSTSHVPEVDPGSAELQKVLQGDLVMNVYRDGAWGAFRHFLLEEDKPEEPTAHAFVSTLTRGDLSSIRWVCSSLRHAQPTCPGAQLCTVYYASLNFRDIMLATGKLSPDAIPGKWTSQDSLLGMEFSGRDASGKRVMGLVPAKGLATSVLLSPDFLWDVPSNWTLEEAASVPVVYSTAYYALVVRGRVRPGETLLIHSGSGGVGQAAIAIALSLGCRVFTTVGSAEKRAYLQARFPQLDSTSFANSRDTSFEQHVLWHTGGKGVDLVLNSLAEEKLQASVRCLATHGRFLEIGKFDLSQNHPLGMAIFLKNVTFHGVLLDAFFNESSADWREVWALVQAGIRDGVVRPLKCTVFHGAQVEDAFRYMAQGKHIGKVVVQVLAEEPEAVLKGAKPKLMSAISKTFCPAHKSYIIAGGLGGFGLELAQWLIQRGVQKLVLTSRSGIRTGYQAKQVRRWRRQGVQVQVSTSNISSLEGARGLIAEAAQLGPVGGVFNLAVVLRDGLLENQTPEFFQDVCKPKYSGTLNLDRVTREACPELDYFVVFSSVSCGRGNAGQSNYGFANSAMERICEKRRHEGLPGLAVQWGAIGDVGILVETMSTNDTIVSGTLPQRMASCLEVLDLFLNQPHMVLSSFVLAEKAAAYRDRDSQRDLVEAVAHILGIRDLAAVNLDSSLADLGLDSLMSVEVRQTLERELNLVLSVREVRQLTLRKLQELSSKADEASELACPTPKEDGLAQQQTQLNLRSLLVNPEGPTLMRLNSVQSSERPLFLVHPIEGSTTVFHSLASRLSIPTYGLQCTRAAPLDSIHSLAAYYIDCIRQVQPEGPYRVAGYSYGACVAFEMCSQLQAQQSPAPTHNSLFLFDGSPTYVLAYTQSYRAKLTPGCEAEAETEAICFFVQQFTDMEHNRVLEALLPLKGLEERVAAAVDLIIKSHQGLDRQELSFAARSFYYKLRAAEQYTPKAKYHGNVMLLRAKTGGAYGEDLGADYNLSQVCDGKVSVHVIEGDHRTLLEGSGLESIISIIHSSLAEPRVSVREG
UniProt P49792, whole entry, looked up: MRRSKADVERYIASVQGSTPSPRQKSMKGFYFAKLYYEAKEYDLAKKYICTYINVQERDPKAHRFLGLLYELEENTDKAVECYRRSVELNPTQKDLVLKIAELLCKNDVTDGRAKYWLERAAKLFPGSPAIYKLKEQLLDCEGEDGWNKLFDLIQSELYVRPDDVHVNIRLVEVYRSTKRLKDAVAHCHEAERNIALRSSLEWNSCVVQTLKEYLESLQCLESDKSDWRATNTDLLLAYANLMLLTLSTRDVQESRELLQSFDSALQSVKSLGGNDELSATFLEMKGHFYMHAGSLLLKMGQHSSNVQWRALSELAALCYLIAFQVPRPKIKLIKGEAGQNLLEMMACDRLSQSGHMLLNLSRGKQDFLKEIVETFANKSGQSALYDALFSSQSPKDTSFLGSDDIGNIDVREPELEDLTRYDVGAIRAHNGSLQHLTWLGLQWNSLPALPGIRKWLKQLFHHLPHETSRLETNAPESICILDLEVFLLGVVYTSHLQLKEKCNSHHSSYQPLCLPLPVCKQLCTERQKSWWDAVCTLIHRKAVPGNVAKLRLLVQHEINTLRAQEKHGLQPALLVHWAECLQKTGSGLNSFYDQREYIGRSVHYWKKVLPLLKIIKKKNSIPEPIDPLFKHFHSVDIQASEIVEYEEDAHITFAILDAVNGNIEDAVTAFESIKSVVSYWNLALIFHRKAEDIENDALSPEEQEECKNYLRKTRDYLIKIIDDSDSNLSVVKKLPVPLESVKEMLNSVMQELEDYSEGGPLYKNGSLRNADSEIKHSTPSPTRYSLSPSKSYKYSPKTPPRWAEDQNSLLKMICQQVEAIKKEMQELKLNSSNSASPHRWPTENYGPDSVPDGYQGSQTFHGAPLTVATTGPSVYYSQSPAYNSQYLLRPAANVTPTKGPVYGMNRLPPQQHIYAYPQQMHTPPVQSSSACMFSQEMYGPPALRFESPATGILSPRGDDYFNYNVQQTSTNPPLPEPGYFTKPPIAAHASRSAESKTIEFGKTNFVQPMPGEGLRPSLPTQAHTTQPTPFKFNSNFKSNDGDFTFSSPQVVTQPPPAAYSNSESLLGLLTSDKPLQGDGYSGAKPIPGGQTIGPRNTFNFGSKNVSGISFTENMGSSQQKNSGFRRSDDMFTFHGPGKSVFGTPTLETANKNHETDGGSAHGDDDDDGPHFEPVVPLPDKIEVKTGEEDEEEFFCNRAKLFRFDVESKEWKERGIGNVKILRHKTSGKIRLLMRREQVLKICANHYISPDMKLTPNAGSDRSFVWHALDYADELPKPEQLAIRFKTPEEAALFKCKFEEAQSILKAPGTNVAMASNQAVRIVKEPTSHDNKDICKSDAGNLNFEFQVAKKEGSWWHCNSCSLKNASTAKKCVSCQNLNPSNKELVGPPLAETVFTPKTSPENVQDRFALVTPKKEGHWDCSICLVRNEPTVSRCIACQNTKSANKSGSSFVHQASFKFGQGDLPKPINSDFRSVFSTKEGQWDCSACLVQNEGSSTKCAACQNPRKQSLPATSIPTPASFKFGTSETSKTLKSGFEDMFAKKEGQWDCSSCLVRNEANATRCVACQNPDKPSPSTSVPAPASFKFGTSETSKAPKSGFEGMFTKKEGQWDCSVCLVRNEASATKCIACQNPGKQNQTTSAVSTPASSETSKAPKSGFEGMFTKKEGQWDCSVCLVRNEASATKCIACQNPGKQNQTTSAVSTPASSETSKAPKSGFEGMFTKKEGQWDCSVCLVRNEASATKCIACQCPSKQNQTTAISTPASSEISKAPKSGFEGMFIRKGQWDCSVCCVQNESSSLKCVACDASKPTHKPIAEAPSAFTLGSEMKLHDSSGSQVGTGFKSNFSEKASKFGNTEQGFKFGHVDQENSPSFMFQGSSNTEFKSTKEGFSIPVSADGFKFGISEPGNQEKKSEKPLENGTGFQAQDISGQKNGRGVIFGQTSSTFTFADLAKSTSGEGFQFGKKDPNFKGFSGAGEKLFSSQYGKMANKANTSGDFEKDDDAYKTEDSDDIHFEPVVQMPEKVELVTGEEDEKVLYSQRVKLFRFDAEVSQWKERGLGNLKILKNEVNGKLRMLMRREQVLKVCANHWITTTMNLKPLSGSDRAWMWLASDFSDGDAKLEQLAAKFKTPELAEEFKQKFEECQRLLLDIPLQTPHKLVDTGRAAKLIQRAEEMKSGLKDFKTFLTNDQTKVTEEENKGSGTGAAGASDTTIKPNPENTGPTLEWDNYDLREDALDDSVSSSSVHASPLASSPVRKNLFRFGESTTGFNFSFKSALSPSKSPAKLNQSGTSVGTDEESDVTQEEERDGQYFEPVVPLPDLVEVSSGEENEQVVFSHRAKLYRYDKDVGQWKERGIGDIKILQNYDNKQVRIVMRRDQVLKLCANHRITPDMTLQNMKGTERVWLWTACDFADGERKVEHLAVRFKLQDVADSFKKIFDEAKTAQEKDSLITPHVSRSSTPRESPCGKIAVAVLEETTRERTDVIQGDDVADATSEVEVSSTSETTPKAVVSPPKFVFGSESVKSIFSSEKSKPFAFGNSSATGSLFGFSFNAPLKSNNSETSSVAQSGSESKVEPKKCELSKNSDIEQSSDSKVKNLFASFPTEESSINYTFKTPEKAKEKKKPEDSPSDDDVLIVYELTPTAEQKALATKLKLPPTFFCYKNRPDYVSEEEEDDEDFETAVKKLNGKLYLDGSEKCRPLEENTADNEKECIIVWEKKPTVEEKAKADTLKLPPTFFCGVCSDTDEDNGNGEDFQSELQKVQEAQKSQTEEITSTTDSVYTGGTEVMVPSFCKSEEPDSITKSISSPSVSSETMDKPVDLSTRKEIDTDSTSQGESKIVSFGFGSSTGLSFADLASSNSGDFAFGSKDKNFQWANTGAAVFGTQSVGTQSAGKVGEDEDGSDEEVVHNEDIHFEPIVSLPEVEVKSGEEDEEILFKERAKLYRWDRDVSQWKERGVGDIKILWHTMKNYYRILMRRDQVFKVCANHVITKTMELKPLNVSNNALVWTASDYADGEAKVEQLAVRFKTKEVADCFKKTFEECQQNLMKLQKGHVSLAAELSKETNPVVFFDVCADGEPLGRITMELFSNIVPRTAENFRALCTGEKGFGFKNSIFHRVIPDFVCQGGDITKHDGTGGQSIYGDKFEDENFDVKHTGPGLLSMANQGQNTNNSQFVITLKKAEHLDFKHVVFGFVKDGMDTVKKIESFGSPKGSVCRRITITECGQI
UniProt P47756, whole entry, looked up: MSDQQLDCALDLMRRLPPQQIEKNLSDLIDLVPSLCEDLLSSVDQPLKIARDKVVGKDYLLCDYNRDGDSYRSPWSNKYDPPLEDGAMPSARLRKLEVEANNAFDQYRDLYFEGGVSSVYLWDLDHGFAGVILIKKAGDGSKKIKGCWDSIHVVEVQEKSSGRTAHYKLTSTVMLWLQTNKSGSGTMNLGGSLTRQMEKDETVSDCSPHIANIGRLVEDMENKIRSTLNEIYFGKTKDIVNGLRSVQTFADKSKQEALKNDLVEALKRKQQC
UniProt P48643, whole entry, looked up: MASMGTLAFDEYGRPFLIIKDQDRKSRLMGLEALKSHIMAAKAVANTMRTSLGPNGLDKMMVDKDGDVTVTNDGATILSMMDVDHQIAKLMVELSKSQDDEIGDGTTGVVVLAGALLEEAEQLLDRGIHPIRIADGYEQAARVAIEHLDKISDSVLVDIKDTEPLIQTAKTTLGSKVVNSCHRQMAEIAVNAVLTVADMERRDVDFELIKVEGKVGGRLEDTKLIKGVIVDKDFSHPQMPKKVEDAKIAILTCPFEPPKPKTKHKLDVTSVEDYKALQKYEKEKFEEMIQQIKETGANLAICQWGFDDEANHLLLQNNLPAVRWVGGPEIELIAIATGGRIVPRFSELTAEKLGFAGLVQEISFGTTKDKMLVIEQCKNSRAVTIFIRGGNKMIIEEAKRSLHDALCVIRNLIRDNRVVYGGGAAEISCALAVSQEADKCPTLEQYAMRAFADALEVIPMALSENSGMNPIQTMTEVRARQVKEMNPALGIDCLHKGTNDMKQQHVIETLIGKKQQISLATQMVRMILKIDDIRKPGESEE

log2 ratio of iodoacetamide-alkyne labeling, inactive:
FASN C1118 (UniProt P49327) 0.203, FASN C2091 (UniProt P49327) -0.224, UniProt P49591_C300 0.0415, CCT3 C173 (UniProt P49368) 0.209, GMPS C631 (UniProt P49915) 0.369, RANBP2 C2791 (UniProt P49792) 0.0707, METAP2 C290 (UniProt P50579) 0.611, RANGAP1 C303 (UniProt P46060) 0.47, CAPZB C8 (UniProt P47756) -0.00606, DHPS C142 (UniProt P49366) -0.105, MAP1B C2088 (UniProt P46821) 0.329, ERF C189 (UniProt P50548) 0.37, RPS5 C155 (UniProt P46782) 0.277, NUP153 C585 (UniProt P49790) 0.181, MECP2 C413 (UniProt P51608) 0.406, RAB28 C31 (UniProt P51157) 0.181, MAP1B C1814 (UniProt P46821) 0.438, GALK1 C170 (UniProt P51570) 0.0992, RANBP2 C348 (UniProt P49792) 0.0938, MKI67 C1479 (UniProt P46013) 0.31, RANGAP1 C338 (UniProt P46060) 0.0782, NDUFV1 C125 (UniProt P49821) 0.521, DNA2 C1051 (UniProt P51530) 0.324, FASN C1141 (UniProt P49327) 0.536, ST13 C16 (UniProt P50502) 0.163, FASN C2202 (UniProt P49327) 0.222, RANBP2 C3071 (UniProt P49792) 0.0882, CCT8 C36 (UniProt P50990) 0.573, UTRN C1218 (UniProt P46939) 0.0264, AARS C773 (UniProt P49588) 0.138, CCT5 C377 (UniProt P48643) 0.18, MKI67 C3014 (UniProt P46013) 0.246, NOP2 C463 (UniProt P46087) 0.29, NUP153 C1129 (UniProt P49790) 0.282, PREP C25 (UniProt P48147) 0.143, CCT5 C253 (UniProt P48643) 0.167, HCFC1 C149 (UniProt P51610) 0.469

From the supplement of paper PMC11006884
